For some assays here: The name of at least one read-out is uncertain. Some results were stated once for a whole list of compounds, not compound by compound.
What was measured:
envA1 (D22) E. coli = assay: MIC by broth microdilution, isogenic envA1 mutant strain; assay type: cell-based; settings: isogenic envA1 (D22) vs envA+ (D21) E. coli, text
Experimental: Bacterial isolates were cultivated from −70° C. frozen stocks of the indicated strains by overnight passages at 35° C. in ambient air on Mueller-Hinton agar (Beckton Dickinson, Franklin Lakes, N.J.). Minimum Inhibitory Concentrations (MICs) were determined by the broth microdilution method in accordance with the Clinical and Laboratory Standards Institute (CLSI) guidelines. In brief, organism suspensions were adjusted to a 0.5 McFarland standard to yield a final inoculum between 3×10^5 and 7×10^5 colony-forming units (CFU)/mL. Drug dilutions and inocula were made in sterile, cation adjusted Mueller-Hinton Broth (Beckton Dickinson). An inoculum volume of 100 μL was added to wells containing 100 μL of broth with 2-fold serial dilutions of drug. All inoculated microdilution trays were incubated in ambient air at 35° C. for 18-24 hours. Following incubation, the lowest concentration of the drug that prevented visible growth (OD600 nm <0.05) was recorded as the MIC.

Pseudomonas aeruginosa = assay: Checkerboard synergy assay with LpxCi-4; assay type: cell-based; settings: combination with LpxCi-4 (3936), Pseudomonas aeruginosa (ATCC27853 in text)
Source text: One classic method for assessing synergy, referred to as the checkerboard assay, is used to predict the efficacy of antibacterial agents, and is described by Scribner et. al., (Antimicrobial Agents and Chemotherapy 21(6):939-943 (1982)) and in Goodman & Gilman (The Pharmacological Basis of Therapeutics, Sixth Edition, pp. 1097-1098 (1980)). The checkerboard assay involves serial two-fold dilutions of the antibiotics individually and in combination in broth, which is then inoculated with the microorganism to be tested. After incubation, the minimum inhibitory concentration (MIC) of each drug used individually and in combination is determined (N.B., the MIC is the lowest concentration of the drug that inhibits growth in the medium). Synergism is indicated by a decrease in the MIC of each drug when used in combination. […]
Bacterial isolates were cultivated from −70° C. frozen stocks of the indicated strains by overnight passages at 35° C. in ambient air on Mueller-Hinton agar (Beckton Dickinson, Franklin Lakes, N.J.). Minimum Inhibitory Concentrations (MICs) were determined by the broth microdilution method in accordance with the Clinical and Laboratory Standards Institute (CLSI) guidelines. […] Following incubation, the lowest concentration of the drug that prevented visible growth (OD600 nm <0.05) was recorded as the MIC. […]

| Compound | MIC shift due to modification of envA (envA1 (D22) E. coli) [×] | MIC shift due to modification of envA (envA1 (D22) E. coli; listed as daptomycin) [×] | FICI index (Pseudomonas aeruginosa) | FICI index (Pseudomonas aeruginosa; listed as vancomycin) |
| --- | --- | --- | --- | --- |
| CCCCCCCCCC(=O)N[C@@H](Cc1c[nH]c2ccccc12)C(=O)N[C@H](CC(N)=O)C(=O)N[C@@H](CC(=O)O)C(=O)N[C@@H]1C(=O)NCC(=O)N[C@@H](CCCN)C(=O)N[C@@H](CC(=O)O)C(=O)N[C@H](C)C(=O)N[C@@H](CC(=O)O)C(=O)NCC(=O)N[C@H](CO)C(=O)N[C@@H]([C@H](C)CC(=O)O)C(=O)N[C@@H](CC(=O)c2ccccc2N)C(=O)O[C@@H]1C [Daptomycin, daptomycin] | > 8 | > 8 |  |  |
| CO[C@H]1/C=C/O[C@@]2(C)Oc3c(C)c(O)c4c(O)c(c(/C=N/N5CCN(C)CC5)c(O)c4c3C2=O)NC(=O)/C(C)=C\C=C\[C@H](C)[C@H](O)[C@@H](C)[C@@H](O)[C@@H](C)[C@H](OC(C)=O)[C@@H]1C [Rifampin, rifampin] | > 8 |  |  |  |
| CCCCCCCCCCNCCN[C@@]1(C)C[C@H](O[C@H]2[C@H](Oc3c4cc5cc3Oc3ccc(cc3Cl)[C@@H](O)[C@@H](NC(=O)[C@@H](CC(C)C)NC)C(=O)N[C@@H](CC(N)=O)C(=O)N[C@H]5C(=O)N[C@H]3C(=O)N[C@H](C(=O)N[C@H](C(=O)O)c5cc(O)c(CNCP(=O)(O)O)c(O)c5-c5cc3ccc5O)[C@H](O)c3ccc(c(Cl)c3)O4)O[C@H](CO)[C@@H](O)[C@@H]2O)O[C@@H](C)[C@H]1O [Telavancin, telavancin] | > 8 |  |  |  |
| CN[C@H](CC(C)C)C(=O)N[C@H]1C(=O)N[C@@H](CC(N)=O)C(=O)N[C@H]2C(=O)N[C@H]3C(=O)N[C@H](C(=O)N[C@H](C(=O)O)c4cc(O)cc(O)c4-c4cc3ccc4O)[C@H](O)c3ccc(c(Cl)c3)Oc3cc2cc(c3O[C@@H]2O[C@H](CO)[C@@H](O)[C@H](O)[C@H]2O[C@H]2C[C@](C)(N)[C@H](O)[C@H](C)O2)Oc2ccc(cc2Cl)[C@H]1O [Vancomycin, vancomycin] | > 8 |  | ≦0.51 | < 0.5 |
| teicoplanin | > 8 |  |  |  |
